# In PubChem BioAssay AID1508600 (Functional Genomics Laboratory (NCATS/FGL), 2020):
# Screen size: about 53,000 sequences; about 3,700 (7%) were called active.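 Rule for the calls: active = gene knockdowns whose robust z-score for IL-1 alpha signal is at least 2 or at most -2, so actives lie on both sides; inactive = the rest.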 The list shows a part of the results.
# Test: Components of the Cytosolic LPS Sensing Pathway: Gene Identification via Genome-wide siRNA Screen
# Settings: RAW264.7 macrophages, IL-1a HTRF, actives lie on both sides, screened at 100 nM (by protocol), cells primed 5 h with Pam3CSK4 first
# Description: Non-canonical inflammasome activation by cytosolic LPS is a critical component of the host response to Gram-negative bacterial infection, however we lack a comprehensive understanding of the cellular processes that control this pathway. Here we describe a genome-wide siRNA screen to identify genes regulating the mouse macrophage IL-1 alpha response to cytosolic LPS.
# RAW264.7 cells were maintained in complete DMEM media, comprising DMEM with 4.5 g/L glucose, 10% FBS (Gemini Bio-Products, West Sacramento, CA), 2 mM Glutamine (Lonza) and 20 mM HEPES (Lonza), hereafter complete DMEM.
# The RNAi screen was conducted in 384-well format using the Ambion Silencer Mouse Genome siRNA Library (#4391425), which consists of three unique, nonoverlapping, nonpooled siRNAs for each of 17,000 gene targets. siRNA reagents ([…]) were stamped into 384-well white flat-bottom microplates (Corning, 3570) using a Velocity11 VPrep liquid handling system (Agilent) integrated into a BioCel robotic platform (Agilent) in columns 1-22, leaving columns 23-24 empty for negative (Ambion, Negative control #1) and positive (mouse Casp4) controls, respectively. The median value of each plate's negative control column was used to normalize sample wells, and the positive control was used to assess transfection efficiency and assay performance.
# Lipofectamine RNAiMAX Transfection Reagent ([…]; Invitrogen) was added in […] serum-free, antibiotic-free media to plate wells using a Thermo Scientific Matrix WellMate and Microplate Stacker. Plates were incubated for 45 min at room temperature to allow for the sufficient formation of siRNA-lipid complexes. Cells were seeded at a density of 1x10^4 cells per well in 20 microL media containing 20% (vol/vol) FBS without antibiotics. The final concentration of siRNA in each well was 100 nM. Cells were cultured for 48h at 37 degrees C in 5% CO2 before addition of […] of TLR ligand Pam3CSK4 for 5 hours. The medium was then removed, replaced with […] growth media and cell were transfected with […] of LipidA and TransIT-TKO (Mirus) for 24 hour. At the end of the LipidA treatment, […] of supernatant was transferred to a 384 Greiner Bio-one non-binding low volume plate and […] of IL-1a HTRF reagent (Cisbio, 62MIL1APEH) was added and incubated at room temperature overnight. The plates were read on an EnVision plate reader (PerkinElmer). Cell viability was measured by adding 20ul Cell Titer Glo to the original plate and running a luminescence read on the EnVision. The quantified IL-1a signal for each siRNA gene-targeted well was divided by the median of the negative control wells and multiplied by 100 to achieve a negative control normalized value for each well/siRNA. This normalized value was then used to generate a robust z-score by first taking the log of each value and then by subtracting the median and dividing by the […].
row,Sequence,z-score
1,CCGCCAUAGGCUCCUUCAATT against Acat3,inactive: 0.915
2,GGAUCAGGAUUUAAUGAAUTT against Zc2hc1a,inactive: -1.13
3,GGUUAUCAAGAUUGCAUGUTT against Olfr853,inactive: -0.646
4,GGAGAUGUGUGCUAUGUGGTT against Gzmb,inactive: 0.498
5,GGAGAUUUCUUCCAUGGUCTT against Hspa2,inactive: 0.445
6,CGGAAGCCUCCACAAAUAATT against Apba1,inactive: 0.0959
7,AGGAAACAGCACCUUGUUGTT against Olfr205,inactive: 0.192
8,GGCCUUGAAGGAGAUGCUATT against Rell2,inactive: 0.887
9,GGCGGAAGCCAUCUAACUUTT against Arhgef4,inactive: -0.519
10,GGAGCUAAAAGAGUGCUCCTT against Ints9,inactive: -0.207
11,GGAAUUUGUGAUCAGCGACTT against Cotl1,inactive: 0.194
12,GGGAAAUAACGAAUUUCAGTT against Zfp292,inactive: 0.926
13,GGCAGGACAUUCUCAAAUCTT against Praf2,active: 2.51
14,GGAUGCAAUGGCUGAGAAGTT against Pth,inactive: 0.234
15,GGAAGAGGUAGUUGCUAGATT against Gml2,inactive: 0.82
16,GGUUCUGGAGCAAAUCCACTT against Styk1,active: 2.37
17,GGACAGCCAGUAAAUACAUTT against Cd300c2,inactive: 1.71
18,GGGCCUACAUUAUUCAGCATT against Dapl1,inactive: -1.3
19,GGUAUGCUCUCUGUUGACUTT against Olfr922,inactive: 0.472
20,GCCAAGUUCUCGAAUAUUATT against Pnpla8,inactive: 1.11
21,GGAUCAAUGGAUUCUGCACTT against Fam162a,inactive: -0.808
22,GCAGUAGGUGCCUUAUUGGTT against Rab11a,inactive: -1.39
23,CGCAAUGUGUUGGGCCUCATT against Pik3r5,inactive: 1.28
24,GGGUUAUUGAAUUAGUUCATT against Mybl1,inactive: -0.14
25,CGUGUAUGAGGCUAAGUUATT against Gpr68,inactive: 1.92
26,GCAUAAACUAACCACUUAGTT against Evi2b,inactive: -1.77
27,GCUAUAAGUUUCUGGGUGATT against Fzd2,inactive: 0.658

row,Sequence,z-score
1,GGCUGUGAAAUCGGAUUUATT against Cacnb2,inactive: 0.217
2,GGACUUGAUUGAAGUCAUATT against Tmem132d,inactive: 0.242
3,GGAGAGUAUGGACAGUAUUTT against Pgc,active: 2.96
4,GGUUGUUUCCAGUAUUCUGTT against Apc2,inactive: 1.18
5,GGGUUAGAACUGACACCCGTT against Elk4,inactive: 0.204
6,GGAUAUACAUGGUCUGUUUTT against Naip5,inactive: 0.318
7,GCAAGACAAUCGAAGAAUATT against Pgm1,inactive: 0.199
8,CCAUGGACAUCGAUCACAUTT against Sec14l3,inactive: -1.09
9,GGUUCAUGUAGCAGUGGAUTT against Isoc2b,inactive: -1.21
10,AUGGGCUGUUUAAAGUCCATT against Aim2,inactive: 0.555
11,GAGGGAGAUGUCGUCCAAGTT against Gng13,inactive: 0.223
12,GGGACCAGAACCACAAACATT against Ghsr,inactive: -1.62
13,GCGAGUAGGCAUGAUCGUUTT against Vsig8,inactive: 0.555
14,GGAGAAUGGAAAGUAUGGGTT against D1Pas1,inactive: -1.99
15,GGCCUGAGGACUAUGUUUUTT against C1s1,inactive: -0.149
16,GGAUGGAGACCUCUCCUUUTT against Guca2a,inactive: 1.36
17,GGUUGUGAGCUAACAAUGGTT against B430209F14Rik,inactive: 1.25
18,GCUAGCACAGGGAAUUUAGTT against Rgs20,inactive: 0.334
19,CCCAGACGAGAACUGUAUCTT against Sqor,inactive: -0.0381
20,CGAGAACUUCAUCAAUCGCTT against Prss46,inactive: -1.98
21,GGAUUUUUCUAGCAAGUUGTT against Ergic2,inactive: 0.814
22,GGUCAUACUCUAAUCGGACTT against Ctss,inactive: 0.672
23,GGUAGAGGAUGCGAUGCUGTT against Msi2,active: 4.61
24,GGAAACUGUAGAGAACAUUTT against Csn1s2b,inactive: -0.378
25,GCAUCUGUGUAGAAGUGGATT against Thrsp,inactive: -1.21
26,GGAGAAGAAAACAUCAAGUTT against Hrh3,active: 2.52
27,GCCCACGAGCCUCAUGGACTT against Sts,inactive: -0.805

# Shown with tabs: part of the list above
row	Sequence	z-score
19	CCCAGACGAGAACUGUAUCTT against Sqor	inactive: -0.0381
23	GGUAGAGGAUGCGAUGCUGTT against Msi2	active: 4.61
